Experimental findings from publication PMC9597602, “Metal Complexes as Antifungals? From a Crowd-Sourced Compound Library to the First In Vivo Experiments” (JACS Au, 2022) are described below.

The nature of data set [1]: Therapeutic index against the best MIC measured. Particulars: lowest TI obtained in either TI_CC50 or TI_HC10.
The test system of a further data set is human red blood cells. The format is cell-based. As to conditions: Therapeutic Index with respect to haemolysis against the best MIC measured. The procedure: Human whole blood (Australian Red Cross) was washed three times with 3 vol of 0.9% NaCl and resuspended in a concentration of 0.5 × 10^8 cells/mL, determined by a manual cell count in a Neubauer hemocytometer. […] After incubation, the plates were centrifuged at 1000g for 10 min to pellet cells and debris; 25 μL of the supernatant was then transferred to reading plates (384-well, polystyrene plated (PS), Corning CLS3680), with hemolysis determined by measuring the supernatant absorbance at […] (OD405) using cells without inhibitors as negative control and cells with 1% Triton X-100 (Sigma T8787) as positive control. […] Melittin (Sigma M2272) was used as internal control on each plate.

For some assays here: The source's definition of the ratio is not given here.

With `c1ccc([PH]([Au][S]c2ccccn2)(c2ccccc2)c2ccccc2)cc1` [Au2], in data set [1], the “Minimum TI” value stood at 35. In the data set on human red blood cells, this compound gave a TI_HC10 of 8333.
